Paper PMC2568807
No constants are given. Whether binding was seen depends on the method and setting. Binding seen in cells or lysates may run through a third protein. Binding calls can cover weak binding; strength is not graded here.

Chains of the proteins cited; added tags and fusions are not shown. Lines headed by an entry give the natural chain unless they say otherwise; changes in a name come on top.
UniProt B3F8Y1: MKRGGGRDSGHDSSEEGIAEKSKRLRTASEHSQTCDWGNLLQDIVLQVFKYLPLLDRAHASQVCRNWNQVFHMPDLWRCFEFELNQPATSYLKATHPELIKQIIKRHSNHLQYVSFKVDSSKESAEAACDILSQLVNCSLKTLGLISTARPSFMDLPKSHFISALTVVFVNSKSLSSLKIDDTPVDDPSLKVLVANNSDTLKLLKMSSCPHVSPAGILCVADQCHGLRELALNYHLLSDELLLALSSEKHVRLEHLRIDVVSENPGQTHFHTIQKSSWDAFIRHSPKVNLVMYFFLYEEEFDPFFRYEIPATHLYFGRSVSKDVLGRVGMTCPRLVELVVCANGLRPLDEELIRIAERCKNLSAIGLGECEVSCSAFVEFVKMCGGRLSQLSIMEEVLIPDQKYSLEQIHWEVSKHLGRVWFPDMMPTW
UniProt A0ACI6NKV9: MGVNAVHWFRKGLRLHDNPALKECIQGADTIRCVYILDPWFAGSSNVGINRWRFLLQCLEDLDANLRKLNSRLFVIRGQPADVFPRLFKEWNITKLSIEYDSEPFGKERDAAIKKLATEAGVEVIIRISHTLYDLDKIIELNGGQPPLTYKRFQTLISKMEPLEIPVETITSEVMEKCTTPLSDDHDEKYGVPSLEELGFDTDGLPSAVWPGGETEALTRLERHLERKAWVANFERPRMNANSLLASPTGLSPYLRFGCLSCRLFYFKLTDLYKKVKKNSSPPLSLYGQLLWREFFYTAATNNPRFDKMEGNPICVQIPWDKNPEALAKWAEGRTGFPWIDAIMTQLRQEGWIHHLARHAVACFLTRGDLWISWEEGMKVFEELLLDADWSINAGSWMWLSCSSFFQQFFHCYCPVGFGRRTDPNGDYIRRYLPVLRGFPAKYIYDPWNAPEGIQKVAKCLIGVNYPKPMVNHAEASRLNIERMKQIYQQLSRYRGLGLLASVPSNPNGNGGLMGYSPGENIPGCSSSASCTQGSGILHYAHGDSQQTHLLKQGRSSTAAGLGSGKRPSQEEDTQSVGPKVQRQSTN

Molecular target: ovine Fbxl3 full-length, Myc-tagged (sheep) (UniProt B3F8Y1)
Assay: co-IP; COS7 cells co-transfected with Myc-Fbxl and Flag-Cry1 vectors, harvested 48 h post-transfection in IP buffer (150 mM NaCl, 5 mM EDTA, 0.5% Nonidet P40, 50 mM Tris pH 7.8); supernatant incubated overnight at 4°C with anti-Myc affinity resin; Western blot with anti-Myc or anti-Flag

In the case of “ovine CRY1 (Cryptochrome 1), Flag-tagged (from UniProt A0ACI6NKV9 1-587)”, the binding is reported as “binds”.
